Results published in patent US11311637 (dated 2022).

Legend:
[1] = peptide synthesis; details: whole synthesis, RP-HPLC; run 1
[2] = peptide made by a vendor; details: whole synthesis, RP-HPLC; run 2

With “NOTA-Asp-Cha-Phe-(D)Ser-(D)Arg-Tyr-Leu-Trp-Ser-COOH” as the substance, how does the “final HPLC purity” value [1] read?
The value was >98%.

What about the “final HPLC purity” value [2] of the same substance?
The value was >97%.
